In patent EP1555271A1, “Peptides useful for diagnosis and therapy of TRP-2+ and/or TRP-1+ tumors” (Deutsches Krebsforschungszentrum Stiftung des öffentlichen …, priority 2004, dated 2005):
Not every detail of the peptide structures is certain; ends, links or a residue may be inferred. Ends that are not written are not given here.

Molecular target: HLA-DRB1*0301 (Homo sapiens, UniProt P01903+P01911, A100K/A102G/A103R/A169T/F55Y/I96L/K41T/L162R/M171V/P40S/Q125H/Q178H/Q39Y/R42S/S66N/T106N/T262R/W38E/Y61H)
Assay: HLA-DR competitive binding assay on T2.DR3 cells (biotinylated TT829-843 reporter peptide, Europium sandwich immunoassay)
Conditions: competition with TT829-843 reporter peptide on T2.DR3 cells; result in words

**Q.** “NLLDLSKEEKNHFVR [TRP-1132-146, NLLDLSKEEKNHFVR]” was tested. Which “binding capacity to HLA-DRB1*0301” value did it give?
**A.** did not exhibit any affinity for the HLA-DRB1*0301 molecule
